± gives the standard error. Many of these values have a large error.
B1: glmS ribozyme (parent)
chain: AUAAAAGCGCCAGAACUACAGAAAUGUAGUUGACGAGGAGGAGGUUUAUCGAAUUUUCGGCGGAUGCCUCCAAA

Variants of: B1
Experiment: self-cleavage kobs at 640 uM GlcN6P; higher = faster cleavage; RNA array
Conditions: with glucosamine-6-phosphate
Outline: (§1)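 Glucosamine-6-phosphate, from 40 μM to 10 mM in HEPES/KCl/Mg(OAc)2 buffer, was flowed over sequenced MiSeq chips carrying barcoded ribozyme variants transcribed in situ by E. coli RNA polymerase. A hybridised Cy3 probe tracked the variants at 37 °C as tiles were imaged over ~14 h. kobs, kcat and KM were obtained by fitting normalised per-tile medians to exponential decays and then applying weighted Michaelis–Menten fits across concentrations.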

Variant | self-cleavage kobs at 640 uM GlcN6P
A14G U30A G62U U69G | 3.44e-05 ± 3.2e-05 s⁻¹
A6C U30C U56G C70A | 4.47e-05 ± 4.3e-05 s⁻¹
U47G C50U | 2.26e-05 ± 1.7e-05 s⁻¹
A15U G32A C71A | 4.9e-05 ± 2.8e-05 s⁻¹
G38A U54G C68A | 3.67e-05 ± 2.9e-05 s⁻¹
A33U G37U U69A | 4.26e-05 ± 2.8e-05 s⁻¹
A12G G51A C70A | 2.99e-05 ± 2.8e-05 s⁻¹
U47G A48C | 2.91e-05 ± 1.8e-05 s⁻¹
G13U U45C | 2.11e-05 ± 1.9e-05 s⁻¹
C50G A64C | 2.41e-05 ± 2.4e-05 s⁻¹
A36U G51U U69G | 9.49e-05 ± 5.6e-05 s⁻¹
U30G G37U G62C C70U C71G | 4.11e-05 ± 2.8e-05 s⁻¹
U47A C68A | 2.77e-05 ± 1.7e-05 s⁻¹
C11A C16U A53U | 4.31e-05 ± 2.3e-05 s⁻¹
G51A U55G C70U | 2.65e-05 ± 2.1e-05 s⁻¹
C11G C68G | 2.78e-05 ± 1.5e-05 s⁻¹
G29C C67G | 2.81e-05 ± 1.5e-05 s⁻¹
G32A G51A U69A | 4.22e-05 ± 3.2e-05 s⁻¹
C50G A53U G63U U69A | 5.07e-05 ± 3.1e-05 s⁻¹
C8A C34U U69A | 0.000113 ± 6.1e-05 s⁻¹
C10A C34U C67G C68G | 3.03e-05 ± 1.8e-05 s⁻¹
C10U A14G C68G | 3.92e-05 ± 2.3e-05 s⁻¹
U54G C58U C67U | 2.44e-05 ± 2.1e-05 s⁻¹
A6C U55G | 1.1e-05 ± 9.6e-06 s⁻¹
U31A A36U A42C | 3.43e-05 ± 2.8e-05 s⁻¹
C34G G63U C68G | 3.81e-05 ± 2.8e-05 s⁻¹
C8A G37U G38A A53C G60U C67G C68A | 2.46e-05 ± 2.4e-05 s⁻¹

Variants of: B1
Experiment: self-cleavage kobs at 2500 uM GlcN6P; higher = faster cleavage; RNA array
Conditions: with glucosamine-6-phosphate
Outline: as §1

Variant | self-cleavage kobs at 2500 uM GlcN6P
C11U U65G C67G | 8.37e-05 ± 5.1e-05 s⁻¹
A6U A12U C70U C71G | 2.96e-05 ± 2.4e-05 s⁻¹
A15U G32A C71A | 0.000174 ± 8.9e-05 s⁻¹
G38A U54G C68A | 2.48e-05 ± 2.4e-05 s⁻¹
A12G U46G U54C C67U | 3.89e-05 ± 2.1e-05 s⁻¹
A42C G66U | 1.86e-05 ± 1.2e-05 s⁻¹
A12U A52C C67A | 2.77e-05 ± 2.4e-05 s⁻¹
C10U U55G | 2.66e-05 ± 1.6e-05 s⁻¹
U31C C50G U56C C58U | 4.8e-05 ± 3.3e-05 s⁻¹
C10U G37U C67U U69G | 2.98e-05 ± 1.7e-05 s⁻¹
G43U C68U C71A | 3.13e-05 ± 2.4e-05 s⁻¹
G13A C70A | 3e-05 ± 1.6e-05 s⁻¹
G9U G32C C34G C58U C68G | 3.05e-05 ± 2.5e-05 s⁻¹
G29U A52U | 3.75e-05 ± 2.9e-05 s⁻¹
C34G C68A | 3.1e-05 ± 2.5e-05 s⁻¹
C16A G63U U69A | 2.46e-05 ± 1.9e-05 s⁻¹
G32A C67G C70U | 2.78e-05 ± 2.5e-05 s⁻¹

Variant | self-cleavage kobs at 2500 uM GlcN6P
C10A C61G A64G C68G | 4.89e-05 ± 3.2e-05 s⁻¹
G13U C34A A36U G38U U69G | 2.96e-05 ± 2.9e-05 s⁻¹
A6G G29A | 3.17e-05 ± 2.5e-05 s⁻¹
A14G G32A G60A C61A C67A C70U | 5.93e-05 ± 3.8e-05 s⁻¹
G40C G41C | 1.76e-05 ± 1.6e-05 s⁻¹
G32A G51A U69A | 8.7e-05 ± 4.5e-05 s⁻¹
A42U A52U | 1.55e-05 ± 1.3e-05 s⁻¹
U46C G59A | 2.8e-05 ± 1.8e-05 s⁻¹
A36U U49A | 2.93e-05 ± 1.7e-05 s⁻¹
C8A C34U U69A | 4.11e-05 ± 3.2e-05 s⁻¹
A6U C67U C70G | 3.55e-05 ± 3e-05 s⁻¹
C10U A14G C68G | 3.6e-05 ± 1.9e-05 s⁻¹
G29U U46G C58G C67A | 6.82e-05 ± 4.3e-05 s⁻¹
A33G C70G | 2.69e-05 ± 1.7e-05 s⁻¹
C11U A33G C50U | 3.01e-05 ± 2.9e-05 s⁻¹
C34G G63U C68G | 1.99e-05 ± 1.8e-05 s⁻¹
A36U G51U C68G | 4.81e-05 ± 3.2e-05 s⁻¹

Variants of: B1
Experiment: self-cleavage kobs at 160 uM GlcN6P; higher = faster cleavage; RNA array
Conditions: with glucosamine-6-phosphate
Outline: as §1

Variant | self-cleavage kobs at 160 uM GlcN6P
G32A U69G | 0.000229 ± 0.00013 s⁻¹
A42C G66A | 2.64e-05 ± 2.4e-05 s⁻¹
U56C C70U | 1.58e-05 ± 1e-05 s⁻¹
A6U C70A | 1.59e-05 ± 1.3e-05 s⁻¹
U47A U54A U65C | 3.51e-05 ± 2.7e-05 s⁻¹
U57A C68U | 1.53e-05 ± 1.3e-05 s⁻¹
A52C U54G A64C C70U | 2.42e-05 ± 1.8e-05 s⁻¹
C50G A52G G60U C71U | 3.15e-05 ± 1.9e-05 s⁻¹
U30G U46A | 2.99e-05 ± 1.7e-05 s⁻¹
C58G C68A U69G | 4.58e-05 ± 3.8e-05 s⁻¹
A15C G29A | 3.49e-05 ± 2e-05 s⁻¹
A33G C70G | 2.63e-05 ± 1.9e-05 s⁻¹
G32A C68G | 2.1e-05 ± 1.6e-05 s⁻¹
G32A C68U | 1.77e-05 ± 1.3e-05 s⁻¹

At a glance, part of the list above.
Variant | self-cleavage kobs at 160 uM GlcN6P
C50G A52G G60U C71U | 3.15e-05 ± 1.9e-05 s⁻¹
U30G U46A | 2.99e-05 ± 1.7e-05 s⁻¹
C58G C68A U69G | 4.58e-05 ± 3.8e-05 s⁻¹
A15C G29A | 3.49e-05 ± 2e-05 s⁻¹
A33G C70G | 2.63e-05 ± 1.9e-05 s⁻¹
G32A C68G | 2.1e-05 ± 1.6e-05 s⁻¹

Variants of: B1
Experiment: self-cleavage kobs at 40 uM GlcN6P; higher = faster cleavage; RNA array
Conditions: with glucosamine-6-phosphate
Outline: as §1

Variant | self-cleavage kobs at 40 uM GlcN6P
C11U A15G C58G C68U | 2.56e-05 ± 1.8e-05 s⁻¹
U2A C50G | 3.27e-05 ± 2.3e-05 s⁻¹
U31C C50G U56C C58U | 4.09e-05 ± 2.3e-05 s⁻¹
C50G A64C | 0.000487 ± 0.00046 s⁻¹
A15U C70G | 1.58e-05 ± 1.5e-05 s⁻¹
G51A U55G C70U | 3.85e-05 ± 2.2e-05 s⁻¹
U47A U54A U65C | 2.09e-05 ± 2e-05 s⁻¹
A15C G29A | 1.56e-05 ± 1e-05 s⁻¹
A53C C67A | 2.74e-05 ± 1.4e-05 s⁻¹

Variants of: B1
Experiment: self-cleavage kobs at 10000 uM GlcN6P; higher = faster cleavage; RNA array
Conditions: with glucosamine-6-phosphate
Outline: as §1

Variant | self-cleavage kobs at 10000 uM GlcN6P
U2A C50G | 2.62e-05 ± 1.8e-05 s⁻¹
A42C G66U | 1.34e-05 ± 8.3e-06 s⁻¹
A12U A52C C67A | 2.29e-05 ± 1.9e-05 s⁻¹
G32A C67G C70U | 2.81e-05 ± 1.9e-05 s⁻¹
A6G G29A | 1.4e-05 ± 1.4e-05 s⁻¹

Variants of: B1
Experiment: KM; higher = weaker cofactor use; RNA array
Conditions: with glucosamine-6-phosphate
Outline: as §1

Variant | KM
U54A C70G | 68.2 ± 58 µM
U56C G60A | 1070 ± 61 µM
U57A C68U | 2500 ± 560 µM
G66A U69A | 438 ± 250 µM

From the supplement of paper PMC7125110
